# In patent publication US20140322240A1:
# The chains behind the UniProt entries cited, without tags or fusion partners. Where a name states a change or a piece, a line headed by the entry shows the natural chain unless it says otherwise. A line that says so, or that is headed by a name, gives the form on record, which may keep a tag or linker.
# human IgM (P01871, form named): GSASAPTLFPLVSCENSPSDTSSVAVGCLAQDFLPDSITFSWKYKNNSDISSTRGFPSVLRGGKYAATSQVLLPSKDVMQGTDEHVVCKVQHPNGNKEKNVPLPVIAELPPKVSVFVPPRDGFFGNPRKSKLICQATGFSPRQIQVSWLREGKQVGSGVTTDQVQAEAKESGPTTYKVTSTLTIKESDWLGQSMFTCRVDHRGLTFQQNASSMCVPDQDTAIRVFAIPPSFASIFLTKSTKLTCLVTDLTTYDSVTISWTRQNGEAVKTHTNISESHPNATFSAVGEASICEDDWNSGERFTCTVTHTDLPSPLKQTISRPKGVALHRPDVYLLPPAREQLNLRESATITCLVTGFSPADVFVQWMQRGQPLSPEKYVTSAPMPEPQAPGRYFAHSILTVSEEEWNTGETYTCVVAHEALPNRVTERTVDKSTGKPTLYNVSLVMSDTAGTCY
# No constants are given. Whether binding was seen depends on the method and setting. Some entries that bind do so weakly or less than the wild type.
# Target: PfEMP1 variant TM284var1 (Plasmodium falciparum (strain TM284))
# Test: IFA with an anti-human IgM monoclonal antibody on infected erythrocytes
substance,measurement,value
human IgM (from UniProt P01871 1-453) (antibody),binding,binds
